Test results published in PubChem BioAssay AID652054 (National Center for Advancing Translational Sciences (NCATS), 2013).
Several values for one entry are separate records, joined by “and”; a condition that tells them apart may be missing. Equal values may be shown once. About 9,100 (2.5%) of roughly 360,000 compounds were called active. This list was built around the results that the source calls inconclusive (neither active nor inactive); the mix of calls is not that of the screen. Cut-off read from the data, not from the text of the source: active = max response below about -50%; inconclusive = no clear call, values can overlap the other calls; inactive = above that.

Chains of the proteins cited; added tags and fusions are not shown.
UniProt P35462, whole entry, looked up: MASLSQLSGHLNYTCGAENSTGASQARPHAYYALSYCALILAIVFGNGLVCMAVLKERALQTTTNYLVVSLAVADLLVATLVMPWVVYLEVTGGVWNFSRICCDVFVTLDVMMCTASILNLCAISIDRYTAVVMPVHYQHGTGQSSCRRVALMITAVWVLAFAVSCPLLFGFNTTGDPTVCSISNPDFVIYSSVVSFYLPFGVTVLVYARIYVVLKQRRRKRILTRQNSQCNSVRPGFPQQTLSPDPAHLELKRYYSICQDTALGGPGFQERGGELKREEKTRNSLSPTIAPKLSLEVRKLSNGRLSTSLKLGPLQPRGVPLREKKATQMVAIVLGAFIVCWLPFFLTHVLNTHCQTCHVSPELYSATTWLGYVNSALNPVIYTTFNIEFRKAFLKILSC

Biological target: D(3) dopamine receptor (Homo sapiens) (UniProt P35462)
Test: qHTS of D3 Dopamine Receptor Antagonist: qHTS
Conditions: D3R cells, DiscoveRx beta-arrestin luminescence, antagonist mode; stronger effect = lower value
Method in brief: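 Cells expressing the human receptor were seeded at 1500 cells/well, incubated overnight at 37 degrees C in 5% CO2, then exposed to library compounds with dopamine controls for 90 minutes at 37 degrees C before luminescent detection.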
% is set by controls: 0 for no effect and ±100 for the full control effect.

Compound | max response, negative = inhibition
CCOc1cc(/C=C2\NC(=O)NC2=O)cc([N+](=O)[O-])c1O | inconclusive: -35.8%
CCn1c(SC(C)C)nnc1-c1cc(-c2ccccc2)sc1N | inconclusive: -36%
CCCCC(c1nnnn1CC1CCCO1)N1CCN(Cc2ccccc2)CC1 (configuration not stated) | active: -78.4%
CC(CCN1CCN(c2ccc(F)cc2)CC1)c1ccccc1 (configuration not stated) | active: -76.4%
S=C(NCCCN1CCOCC1)NN=C1c2ccccc2-c2ccccc21 | active: -70.6%
C/C(N)=C(/C#N)C(=O)CSc1nc2cc(Cl)ccc2c(=O)n1Cc1ccco1 | inconclusive: -43.9%
COc1cc(/C=C/C(=O)OCC(=O)NC(=O)NC(C)(C)C)ccc1OCC#N | inconclusive: -34.9%
Cc1ccc(OCCN2CCCC2)cc1 | inconclusive: -42%
CCC/C=C(\CCC)C(NC(=O)c1ccc(C(=O)OC)cc1)c1ccc(C(=O)OC)cc1 (configuration not stated) | inactive: -1.22%
CCN1CCN(c2nc(Nc3cccc(C)c3)nc(N)c2[N+](=O)[O-])CC1 | active: -65.1%
CCOc1cc(C2C(C#N)=C(N)Oc3n[nH]c(-c4ccccc4)c32)ccc1O (configuration not stated) | inconclusive: -45.6%
CC1Cc2[nH]c(=S)[nH]c(=O)c2C(c2ccc(C(C)C)cc2)O1 (configuration not stated) | inconclusive: -32.9%
CCOC(=O)[C@H]1[C@H]2COc3ccc(Cl)cc3[C@@H]2N2C(=O)CN(Cc3ccc(C)cc3)C(=O)[C@@]12C | inactive: -4.16%
Cc1c(/C=C/C(=O)c2ccc(C(C)C)cc2)cnn1C | inconclusive: -30.4%
Cc1ccc(NC(=O)c2ccc(Nc3c([N+](=O)[O-])cc([N+](=O)[O-])cc3[N+](=O)[O-])cc2)cc1 | active: -76.8%
Cc1ccc(Nc2nc3ccccc3c(=O)s2)cc1C | inconclusive: -39.6%
O=C(Nc1ccc2ccccc2c1)C(c1ccccc1)C1CCCC1 (configuration not stated) | inactive: 27.4%
CCN1CCCC1CNC(=O)c1cc(N)ccc1OC (configuration not stated) | active: -51.7%
CCSc1nc2c(c(=O)[nH]1)C(c1cccnc1)C(C(=O)OC)=C(C)N2 (configuration not stated) | inconclusive: -33.4%
COc1ccc(CNCc2cccc(Oc3ccccc3)c2)cc1 | inconclusive: -34.8%
COc1ccc(CN2CCN(c3ccccn3)CC2)c(OC)c1C | active: -55.9% and inconclusive: -30.7%

Compound | max response, negative = inhibition
COC1=C(N)C(=O)c2nc(-c3nc(C(=O)O)c(C)c(-c4ccc(OC)c(OC)c4O)c3N)ccc2C1=O | active: -118%
Cc1cc(CN2CCN(CC(=O)Nc3cc(C(F)(F)F)ccc3-n3cncn3)CC2)no1 | inconclusive: -31.6%
CN1C(=O)C2(NCCc3c2[nH]c2ccccc32)c2ccccc21 (configuration not stated) | inconclusive: -41%
CSc1ccc(-c2cc(=O)c3ccccc3o2)cc1 | inconclusive: -31.5%
O=C(Nc1cc(Cl)cc(Cl)c1)N1CCCN(Cc2ccccc2)CC1 | active: -79.7%
NC(=O)CC(NC(=O)Cc1cccc2ccccc12)c1ccc(NC2CC3CCC2C3)c([N+](=O)[O-])c1 (configuration not stated) | active: -64.7%
CCc1ccc(-c2cc(C(=O)Nc3ccc(S(=O)(=O)NC(C)=O)cc3)c3ccccc3n2)cc1 | active: -93.5%
O=C(NCc1ccc(C(F)(F)F)cc1)C1CC(c2ccccc2[N+](=O)[O-])=NO1 (configuration not stated) | inconclusive: -33.2%
OC(c1ccccc1)(C1CCCCC1)C(CN1CCOCC1)c1ccccc1 (configuration not stated) | inconclusive: -41.7%
Cn1c(CCNC(=O)c2ccc(F)cc2)nc2ccccc21 | active: -66.3%
OC(CN1CCN(c2cccc(Cl)c2)CC1)C(c1ccccc1)c1ccccc1 (configuration not stated) | active: -72.5%
CCOc1ccc(C(=O)Cc2ccc3oc(C(=O)O)cc3c2)c(O)c1 | active: -62.4%
Cc1nn(CC(=O)Nc2ccc(Cl)cc2)c(=O)c2cc(-c3ccccc3)nn12 | inactive: -4.78%
Cc1ccc(-c2cc(-c3ccccc3Cl)[nH]n2)c(O)c1 | inconclusive: -34.3%
CN(C(=O)COc1ccccc1C(=O)NCc1ccccc1)C1CCS(=O)(=O)C1 (configuration not stated) | inactive: 0%
O=C(O)c1ccc(Cl)c(NC(=O)C2CCCN2S(=O)(=O)c2cccc3nsnc23)c1 (configuration not stated) | inconclusive: -32.8%
CCN(CC)S(=O)(=O)c1cccc(NC(=S)NC(=O)/C=C/c2ccc(S(=O)(=O)N3CCOCC3)cc2)c1 | inconclusive: -46.9%
CCc1nc2ccc(C(=O)NCc3ccc4c(c3)OCO4)cn2c1N(C)Cc1ccc(OC)cc1 | inconclusive: -35.8%
CC(C)NC(=O)N(C)C[C@@H]1OCc2cnnn2CCCC(=O)N([C@H](C)CO)C[C@@H]1C | inconclusive: -35%
O=c1c2ccccc2[nH]c(=S)n1CCCN1CCN(C2CCCCC2)CC1 | inconclusive: -40.4%
COc1ccc(C(c2nnnn2CCc2ccccc2)N2CCN(C3CCCC3)CC2)cc1OC (configuration not stated) | inconclusive: -33.7%
O=c1oc2c(-c3ccc([N+](=O)[O-])cc3)cc(O)cc2s1 | active: -55.7%

Compound | max response, negative = inhibition
CCCc1cc(=O)n2[nH]c(C)c(-c3ccccc3)c2n1 | inactive: 0%
O=C(OCC(=O)N1CCCC1)c1ccco1 | inconclusive: -36.6%
COc1ccc(Nc2nc(Nc3ccc(OC)cc3)nc(-n3[nH]c(=O)c(C)c3C)n2)cc1 | active: -58.5%
COc1ccc(OC)c(NS(=O)(=O)c2c(C(=O)N3CCCCCC3)c(C)n(C)c2C)c1 | inactive: 3.85%
CCc1ccc(C(=O)CSc2n[nH]c(C)n2)cc1 | inconclusive: -31.9%
COc1ccc(OCC(=O)NNC(=O)C2CCC2)cc1 | inactive: -0.824%
O=C(O)c1ccc(N2CCc3ccccc32)c([N+](=O)[O-])c1 | inconclusive: -38.3%
S=c1nc(Cc2ccccc2)[nH]c2ccccc12 | inconclusive: -32.8%
CCC(Oc1ccccc1)C(=O)NC1CCSC1=O (configuration not stated) | inactive: 5.56%
Cc1ccc(Sc2nc3ccc(C)cn3c(=O)c2/C=N/O)cc1 | inactive: -29.1%
CCCCN1C(=O)C(CC(=O)NCCN2CCOCC2)CC(C(=O)N2CCCCCC2)=C1C (configuration not stated) | inconclusive: -39.8%
O=C(CCNS(=O)(=O)c1ccccc1Cl)N1CCN(c2ccccn2)CC1 | inactive: -8.51%
COC(=O)c1ccccc1NC(=S)NC(NC(=O)COc1ccccc1)C(Cl)(Cl)Cl (configuration not stated) | inconclusive: -41.5%
COCCn1nnnc1C(c1cc2cccc(C)c2[nH]c1=O)N1CCN(c2ccccc2F)CC1 (configuration not stated) | active: -53.5%
COc1cccc(C(=O)Oc2ccccc2/C=C\C(=O)c2cc3ccccc3o2)c1 | inconclusive: -37%
CCOc1ccc(Cl)cc1/C=N/NC(=O)CNC(=O)c1ccccc1 | inconclusive: -32.4%
Cc1ccc(OCCNCC(O)COc2ccccc2)cc1 (configuration not stated) | active: -83.3%
CCCCNc1nc2sc3c(c2c(=O)n1-c1cccc(Cl)c1)CCN(C)C3 | inactive: -8.86%
CCOC(=O)CSc1nnc(-c2ccc(Cl)cc2Cl)o1 | inconclusive: -33.3%
Clc1ccccc1-c1ccc(CN2CCN(c3ccccc3)CC2)o1 | active: -66.5%
C[C@H](CO)N1C[C@H](C)[C@H](CN(C)S(=O)(=O)c2ccc(Cl)cc2)OCc2cnnn2CCCC1=O | inconclusive: -31.4%
O=[N+]([O-])c1ccc(Cl)c(-c2ccc(/C=N/c3c(-c4ccco4)nc4ccccn34)o2)c1 | inconclusive: -42%

Compound | max response, negative = inhibition
O=[N+]([O-])c1ccccc1N/N=C/c1c[nH]c2ccccc12 | active: -51.6%
CC(C)C[C@H](NC(=O)OC(C)(C)C)C(=O)N1CCC(C(=O)O)CC1 | inconclusive: -40.4%
COC(=O)C1=C(C)N(C)C(C)=C(C(=O)OC)C1c1ccncc1 | inconclusive: -32.5%
Clc1ccc(CO/N=C/c2cccs2)cc1 | inactive: -1.32%
Cc1ccc(C2(C)NC(=O)N(CC(=O)NCCN3C(=O)S/C(=C\c4cccnc4)C3=O)C2=O)cc1 (configuration not stated) | inactive: 20.9%
CCOC(=O)C1(CCOC)CCN(C/C=C/c2ccccc2OC)CC1 | active: -71.2%
CCOc1cc(/C=N/NC(=O)c2nn(C)cc2Br)ccc1OCc1ccccc1 | inactive: 32.5%
O=C(O)CC(NS(=O)(=O)c1cccc2nsnc12)c1ccc(F)cc1 (configuration not stated) | inconclusive: -37.8%
CCOC(=O)CSC1=C(C#N)C(c2ccc(C)s2)CC(=O)N1 (configuration not stated) | inactive: 15.3%
Nc1ncnc2c1ncn2[C@@H]1O[C@H](CCC(=O)NCc2ccccc2)[C@@H](O)[C@H]1O | active: -93.2%
COc1ccccc1C(=O)C1CCCN(Cc2cn[nH]c2C2CCCCC2)C1 (configuration not stated) | inconclusive: -43.2%
CCCCn1c(O)c(N=Nc2ccccc2O)c2ccccc21 | inconclusive: -35.2%
O=C(NCC(c1ccco1)N1CCCC1)c1ccccc1F (configuration not stated) | inconclusive: -35.2%
CNc1nc(Cl)c(SC)c(N2CCOCC2)n1 | inconclusive: -31.4%
COc1ccc(Cl)cc1NC(=O)CN(C)C(=O)Cc1n[nH]c(=O)c2ccccc12 | inconclusive: -30.5%
C=C(C)COc1ccc(-c2[nH]ncc2Oc2ccccc2OCC)c(O)c1 | inconclusive: -43.2%
CCC(=O)Nc1ccc2c(c1)nc(CCN1CCN(c3ccccc3)CC1)n2C | active: -62.5%
Cn1c(C(=O)NCC2CCCO2)cc2c(=O)[nH]c3ccccc3c21 (configuration not stated) | inactive: -10.4%
O=C(NCc1cccnc1)c1cc(C2CCCCN2C(=O)CCc2ccccc2)on1 (configuration not stated) | inactive: -10.2%
O=C(NCCN1CCC(n2c(=O)[nH]c3ccccc32)CC1)c1ccc(OC(F)(F)F)cc1 | active: -86.4%
CCOc1ccc(-n2c(N)c(C(=O)NCC3CCCO3)sc2=S)cc1 (configuration not stated) | inconclusive: -46.7%

As a short view, some entries already given.
Compound | max response, negative = inhibition
O=C(NCc1ccc(C(F)(F)F)cc1)C1CC(c2ccccc2[N+](=O)[O-])=NO1 (configuration not stated) | inconclusive: -33.2%
OC(c1ccccc1)(C1CCCCC1)C(CN1CCOCC1)c1ccccc1 (configuration not stated) | inconclusive: -41.7%
Cn1c(CCNC(=O)c2ccc(F)cc2)nc2ccccc21 | active: -66.3%
